Source: publication doi:10.1101/2020.12.09.418111
No constants are given. Whether binding was seen depends on the method and setting. Binding seen in cells or lysates may run through a third protein. Some binding calls cover weakened binding; strength is not graded here. Tags and fused reporters may be left off the sequences shown.

Protein sequences, listed by entry. Tags and fused reporters are not part of them.
UniProt Q13263: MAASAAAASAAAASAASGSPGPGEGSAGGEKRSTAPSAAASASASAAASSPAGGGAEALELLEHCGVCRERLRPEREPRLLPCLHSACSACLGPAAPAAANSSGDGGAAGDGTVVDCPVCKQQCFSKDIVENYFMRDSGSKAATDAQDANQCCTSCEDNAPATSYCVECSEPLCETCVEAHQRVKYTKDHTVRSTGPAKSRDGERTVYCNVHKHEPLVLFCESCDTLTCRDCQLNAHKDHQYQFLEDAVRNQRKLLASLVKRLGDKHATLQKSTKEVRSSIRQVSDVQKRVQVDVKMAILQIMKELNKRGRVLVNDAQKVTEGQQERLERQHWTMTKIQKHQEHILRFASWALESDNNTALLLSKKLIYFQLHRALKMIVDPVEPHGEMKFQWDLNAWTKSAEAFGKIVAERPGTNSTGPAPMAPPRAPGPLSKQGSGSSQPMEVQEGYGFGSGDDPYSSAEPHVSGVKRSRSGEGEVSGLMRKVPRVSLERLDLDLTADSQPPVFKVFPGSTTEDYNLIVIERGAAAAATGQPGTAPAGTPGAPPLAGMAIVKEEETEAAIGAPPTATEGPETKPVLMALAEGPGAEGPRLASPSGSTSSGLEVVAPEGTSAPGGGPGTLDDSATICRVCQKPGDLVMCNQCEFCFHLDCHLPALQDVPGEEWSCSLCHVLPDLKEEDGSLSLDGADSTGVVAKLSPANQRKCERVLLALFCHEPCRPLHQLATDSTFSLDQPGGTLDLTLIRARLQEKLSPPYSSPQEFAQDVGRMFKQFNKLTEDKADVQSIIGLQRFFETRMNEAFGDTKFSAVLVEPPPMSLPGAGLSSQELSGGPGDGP

Legend:
Kaiso-GFP = target: T1, Kaiso-GFP (UniProt Q86T24); experiment: co-IP
T1 sequence: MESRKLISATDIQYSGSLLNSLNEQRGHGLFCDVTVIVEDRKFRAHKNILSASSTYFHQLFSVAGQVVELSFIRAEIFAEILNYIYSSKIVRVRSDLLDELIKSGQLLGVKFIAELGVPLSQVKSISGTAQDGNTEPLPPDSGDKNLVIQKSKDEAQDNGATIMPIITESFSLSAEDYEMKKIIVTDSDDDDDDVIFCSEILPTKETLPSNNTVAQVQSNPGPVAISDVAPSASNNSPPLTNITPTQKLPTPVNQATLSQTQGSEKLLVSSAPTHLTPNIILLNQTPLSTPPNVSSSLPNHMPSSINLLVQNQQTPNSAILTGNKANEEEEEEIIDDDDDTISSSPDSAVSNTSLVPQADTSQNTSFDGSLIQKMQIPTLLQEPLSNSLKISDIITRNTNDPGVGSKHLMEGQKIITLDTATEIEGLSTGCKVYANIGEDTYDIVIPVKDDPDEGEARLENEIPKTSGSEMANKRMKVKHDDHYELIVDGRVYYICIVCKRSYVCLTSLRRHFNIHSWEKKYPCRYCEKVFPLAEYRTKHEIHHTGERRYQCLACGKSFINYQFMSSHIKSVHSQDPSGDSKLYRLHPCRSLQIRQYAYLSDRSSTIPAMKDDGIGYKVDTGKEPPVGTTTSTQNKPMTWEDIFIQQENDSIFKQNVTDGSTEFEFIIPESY

[1] = target: T2, GST-full length Kaiso (1-692) (UniProt Q86T24); experiment: pull-down
T2 sequence: T1 sequence

[2] = target: T3, GST-Kaiso zinc fingers (494-573) (UniProt Q86T24); experiment: pull-down
T3 sequence: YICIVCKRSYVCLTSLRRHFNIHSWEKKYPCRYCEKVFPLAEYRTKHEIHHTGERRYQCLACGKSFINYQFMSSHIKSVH

[3] = target: T4, GST-Kaiso BTB/POZ domain (1-117) (UniProt Q86T24); experiment: pull-down
T4 sequence: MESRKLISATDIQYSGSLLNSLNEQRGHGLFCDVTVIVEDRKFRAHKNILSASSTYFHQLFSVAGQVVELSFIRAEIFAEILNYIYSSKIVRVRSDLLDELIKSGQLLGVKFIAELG

Measured: binding

TRIM28 tagged with HA (from UniProt Q13263 1-835)
binds: all assays above
